Reference: the supplement of paper PMC12067093, “Discovery and optimisation of a covalent ligand for TRIM25 and its application to targeted protein ubiquitination” (Chemical Science, 2025)
The list shows a part of the results.

The chains behind the UniProt entries cited, without tags or fusion partners. Where a name states a change or a piece, a line headed by the entry shows the natural chain unless it says otherwise.
UniProt P78527, whole entry, looked up: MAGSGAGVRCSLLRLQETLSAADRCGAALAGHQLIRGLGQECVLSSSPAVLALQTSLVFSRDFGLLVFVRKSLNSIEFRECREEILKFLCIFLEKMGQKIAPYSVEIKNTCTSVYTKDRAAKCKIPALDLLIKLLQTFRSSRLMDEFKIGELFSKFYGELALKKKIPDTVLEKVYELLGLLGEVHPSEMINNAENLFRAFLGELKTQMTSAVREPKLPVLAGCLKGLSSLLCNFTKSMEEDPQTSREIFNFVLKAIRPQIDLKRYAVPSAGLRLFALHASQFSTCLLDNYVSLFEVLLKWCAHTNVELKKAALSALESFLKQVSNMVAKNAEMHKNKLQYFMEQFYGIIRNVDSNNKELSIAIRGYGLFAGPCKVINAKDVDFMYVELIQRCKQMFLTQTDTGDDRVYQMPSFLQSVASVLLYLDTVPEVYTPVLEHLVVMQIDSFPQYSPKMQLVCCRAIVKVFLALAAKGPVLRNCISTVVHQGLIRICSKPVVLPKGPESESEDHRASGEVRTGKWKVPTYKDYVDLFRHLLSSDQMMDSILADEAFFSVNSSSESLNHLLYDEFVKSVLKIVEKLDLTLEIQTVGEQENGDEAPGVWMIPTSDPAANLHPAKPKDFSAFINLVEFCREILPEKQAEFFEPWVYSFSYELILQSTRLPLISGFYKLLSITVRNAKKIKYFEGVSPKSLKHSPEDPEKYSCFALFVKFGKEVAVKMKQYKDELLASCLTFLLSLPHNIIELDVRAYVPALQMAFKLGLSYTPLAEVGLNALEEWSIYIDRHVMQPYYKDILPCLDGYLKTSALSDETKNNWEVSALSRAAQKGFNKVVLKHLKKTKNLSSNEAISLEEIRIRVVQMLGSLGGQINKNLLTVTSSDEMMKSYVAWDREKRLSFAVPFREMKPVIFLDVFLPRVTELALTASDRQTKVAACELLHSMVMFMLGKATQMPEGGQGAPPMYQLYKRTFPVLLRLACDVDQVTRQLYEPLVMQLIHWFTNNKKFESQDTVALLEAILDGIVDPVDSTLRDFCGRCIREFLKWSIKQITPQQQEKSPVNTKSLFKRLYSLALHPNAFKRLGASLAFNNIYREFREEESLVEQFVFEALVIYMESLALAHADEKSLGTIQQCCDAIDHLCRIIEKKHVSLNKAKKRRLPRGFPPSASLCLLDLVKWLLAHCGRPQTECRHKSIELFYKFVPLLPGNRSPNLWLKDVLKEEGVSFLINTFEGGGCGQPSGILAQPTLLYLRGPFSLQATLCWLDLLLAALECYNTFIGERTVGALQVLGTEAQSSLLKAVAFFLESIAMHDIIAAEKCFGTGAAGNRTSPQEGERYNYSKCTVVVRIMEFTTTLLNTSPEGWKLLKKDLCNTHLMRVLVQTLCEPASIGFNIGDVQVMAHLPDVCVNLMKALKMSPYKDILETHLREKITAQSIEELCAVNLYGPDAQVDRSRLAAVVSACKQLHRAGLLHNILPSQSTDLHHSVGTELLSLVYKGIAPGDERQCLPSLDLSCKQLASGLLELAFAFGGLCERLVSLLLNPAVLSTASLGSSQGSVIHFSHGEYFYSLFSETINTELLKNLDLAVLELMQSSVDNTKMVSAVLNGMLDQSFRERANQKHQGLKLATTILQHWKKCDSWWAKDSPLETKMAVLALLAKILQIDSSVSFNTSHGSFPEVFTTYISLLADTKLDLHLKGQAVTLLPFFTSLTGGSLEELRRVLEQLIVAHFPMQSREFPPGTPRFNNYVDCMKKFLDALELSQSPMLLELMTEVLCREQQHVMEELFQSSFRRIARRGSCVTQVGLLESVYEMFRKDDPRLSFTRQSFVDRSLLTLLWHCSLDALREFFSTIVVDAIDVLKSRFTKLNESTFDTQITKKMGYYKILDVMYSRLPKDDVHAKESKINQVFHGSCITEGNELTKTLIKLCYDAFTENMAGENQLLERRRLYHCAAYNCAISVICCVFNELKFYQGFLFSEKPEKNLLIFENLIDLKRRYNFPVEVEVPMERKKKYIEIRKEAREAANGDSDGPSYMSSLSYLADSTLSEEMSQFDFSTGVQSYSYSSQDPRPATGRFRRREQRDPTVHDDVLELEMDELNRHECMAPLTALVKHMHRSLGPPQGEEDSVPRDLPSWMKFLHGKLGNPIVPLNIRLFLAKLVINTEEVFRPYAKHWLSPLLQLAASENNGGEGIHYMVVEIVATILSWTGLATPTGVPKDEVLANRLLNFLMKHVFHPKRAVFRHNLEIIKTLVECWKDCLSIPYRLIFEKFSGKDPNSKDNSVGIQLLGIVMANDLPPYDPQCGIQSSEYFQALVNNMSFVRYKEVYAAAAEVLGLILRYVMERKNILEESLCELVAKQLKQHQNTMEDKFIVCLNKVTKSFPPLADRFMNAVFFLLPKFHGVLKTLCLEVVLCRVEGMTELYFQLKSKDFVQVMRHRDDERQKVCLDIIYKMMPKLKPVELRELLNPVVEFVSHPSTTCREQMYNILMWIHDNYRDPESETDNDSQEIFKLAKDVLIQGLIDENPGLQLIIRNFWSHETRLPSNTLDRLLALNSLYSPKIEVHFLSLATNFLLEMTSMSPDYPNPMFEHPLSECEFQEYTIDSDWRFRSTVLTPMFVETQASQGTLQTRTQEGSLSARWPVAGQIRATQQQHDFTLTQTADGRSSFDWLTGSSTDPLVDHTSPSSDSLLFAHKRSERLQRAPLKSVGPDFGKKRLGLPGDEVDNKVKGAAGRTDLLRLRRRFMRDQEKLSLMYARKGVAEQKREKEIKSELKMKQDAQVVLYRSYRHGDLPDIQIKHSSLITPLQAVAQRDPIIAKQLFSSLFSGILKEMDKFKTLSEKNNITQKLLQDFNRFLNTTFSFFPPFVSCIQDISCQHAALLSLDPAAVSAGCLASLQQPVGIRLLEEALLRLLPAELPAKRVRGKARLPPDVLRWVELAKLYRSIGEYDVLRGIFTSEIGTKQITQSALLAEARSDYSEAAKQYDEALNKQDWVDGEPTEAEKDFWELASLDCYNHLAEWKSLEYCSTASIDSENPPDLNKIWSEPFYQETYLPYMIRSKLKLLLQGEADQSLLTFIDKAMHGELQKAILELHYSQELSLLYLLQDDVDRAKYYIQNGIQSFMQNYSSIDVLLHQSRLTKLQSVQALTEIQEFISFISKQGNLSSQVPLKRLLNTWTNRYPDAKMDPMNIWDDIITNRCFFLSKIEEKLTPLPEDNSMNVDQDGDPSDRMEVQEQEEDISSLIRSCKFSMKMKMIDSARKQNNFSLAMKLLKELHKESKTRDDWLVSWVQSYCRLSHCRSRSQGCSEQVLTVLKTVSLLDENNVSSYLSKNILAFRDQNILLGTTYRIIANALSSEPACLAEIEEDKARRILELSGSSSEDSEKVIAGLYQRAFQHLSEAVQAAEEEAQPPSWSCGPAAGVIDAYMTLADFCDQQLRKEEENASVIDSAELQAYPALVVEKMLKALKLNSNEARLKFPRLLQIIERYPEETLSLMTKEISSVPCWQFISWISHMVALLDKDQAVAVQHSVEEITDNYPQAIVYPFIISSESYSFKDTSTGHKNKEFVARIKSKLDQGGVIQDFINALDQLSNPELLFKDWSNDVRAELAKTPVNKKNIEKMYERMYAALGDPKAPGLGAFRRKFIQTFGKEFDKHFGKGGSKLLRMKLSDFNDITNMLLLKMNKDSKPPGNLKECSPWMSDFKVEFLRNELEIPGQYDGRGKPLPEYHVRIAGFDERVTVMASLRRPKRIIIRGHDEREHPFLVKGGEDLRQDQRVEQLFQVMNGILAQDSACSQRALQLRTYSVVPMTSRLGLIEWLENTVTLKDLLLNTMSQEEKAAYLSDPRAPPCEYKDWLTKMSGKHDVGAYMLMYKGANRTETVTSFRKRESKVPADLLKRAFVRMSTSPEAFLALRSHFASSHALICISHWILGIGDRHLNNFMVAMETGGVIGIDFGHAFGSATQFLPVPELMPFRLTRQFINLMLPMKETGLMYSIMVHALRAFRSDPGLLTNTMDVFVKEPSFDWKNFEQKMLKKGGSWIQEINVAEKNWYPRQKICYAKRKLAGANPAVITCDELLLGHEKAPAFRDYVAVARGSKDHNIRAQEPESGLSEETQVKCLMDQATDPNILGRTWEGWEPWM
UniProt P11908: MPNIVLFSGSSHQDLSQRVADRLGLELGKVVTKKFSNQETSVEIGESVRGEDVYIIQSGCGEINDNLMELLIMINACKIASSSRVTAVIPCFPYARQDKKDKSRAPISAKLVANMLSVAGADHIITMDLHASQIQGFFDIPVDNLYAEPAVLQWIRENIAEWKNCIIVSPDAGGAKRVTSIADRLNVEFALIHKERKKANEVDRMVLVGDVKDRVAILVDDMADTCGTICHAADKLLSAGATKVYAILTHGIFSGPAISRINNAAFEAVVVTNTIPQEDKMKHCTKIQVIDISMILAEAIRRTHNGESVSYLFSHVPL
UniProt Q13131: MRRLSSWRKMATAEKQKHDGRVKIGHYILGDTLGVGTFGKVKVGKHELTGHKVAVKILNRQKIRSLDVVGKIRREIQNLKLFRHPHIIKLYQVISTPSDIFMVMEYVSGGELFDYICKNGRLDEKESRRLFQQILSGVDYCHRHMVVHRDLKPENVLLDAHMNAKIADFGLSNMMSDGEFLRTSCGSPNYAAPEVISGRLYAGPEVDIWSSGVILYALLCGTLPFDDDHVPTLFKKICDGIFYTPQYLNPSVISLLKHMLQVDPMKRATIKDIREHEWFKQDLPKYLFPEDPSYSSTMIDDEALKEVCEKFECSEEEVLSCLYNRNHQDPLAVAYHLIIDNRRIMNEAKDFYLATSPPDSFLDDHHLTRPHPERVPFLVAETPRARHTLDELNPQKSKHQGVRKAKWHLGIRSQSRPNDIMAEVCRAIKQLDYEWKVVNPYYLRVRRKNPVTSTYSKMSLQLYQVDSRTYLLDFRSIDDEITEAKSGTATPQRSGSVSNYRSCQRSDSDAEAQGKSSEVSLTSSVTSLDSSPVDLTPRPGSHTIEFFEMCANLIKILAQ
UniProt Q8WWY3: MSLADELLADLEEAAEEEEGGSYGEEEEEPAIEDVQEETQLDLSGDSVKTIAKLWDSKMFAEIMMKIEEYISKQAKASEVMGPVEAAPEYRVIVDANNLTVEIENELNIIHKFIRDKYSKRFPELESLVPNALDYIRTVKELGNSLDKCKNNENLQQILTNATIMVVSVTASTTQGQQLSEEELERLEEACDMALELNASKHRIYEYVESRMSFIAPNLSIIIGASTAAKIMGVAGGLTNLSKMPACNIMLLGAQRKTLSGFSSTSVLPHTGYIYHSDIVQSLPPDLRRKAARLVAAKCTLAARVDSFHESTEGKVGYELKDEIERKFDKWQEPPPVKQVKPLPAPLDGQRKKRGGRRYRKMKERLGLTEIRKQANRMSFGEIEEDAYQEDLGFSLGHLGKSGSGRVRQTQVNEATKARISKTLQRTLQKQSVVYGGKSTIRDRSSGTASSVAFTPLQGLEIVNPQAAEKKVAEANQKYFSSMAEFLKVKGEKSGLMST
UniProt Q86UA1: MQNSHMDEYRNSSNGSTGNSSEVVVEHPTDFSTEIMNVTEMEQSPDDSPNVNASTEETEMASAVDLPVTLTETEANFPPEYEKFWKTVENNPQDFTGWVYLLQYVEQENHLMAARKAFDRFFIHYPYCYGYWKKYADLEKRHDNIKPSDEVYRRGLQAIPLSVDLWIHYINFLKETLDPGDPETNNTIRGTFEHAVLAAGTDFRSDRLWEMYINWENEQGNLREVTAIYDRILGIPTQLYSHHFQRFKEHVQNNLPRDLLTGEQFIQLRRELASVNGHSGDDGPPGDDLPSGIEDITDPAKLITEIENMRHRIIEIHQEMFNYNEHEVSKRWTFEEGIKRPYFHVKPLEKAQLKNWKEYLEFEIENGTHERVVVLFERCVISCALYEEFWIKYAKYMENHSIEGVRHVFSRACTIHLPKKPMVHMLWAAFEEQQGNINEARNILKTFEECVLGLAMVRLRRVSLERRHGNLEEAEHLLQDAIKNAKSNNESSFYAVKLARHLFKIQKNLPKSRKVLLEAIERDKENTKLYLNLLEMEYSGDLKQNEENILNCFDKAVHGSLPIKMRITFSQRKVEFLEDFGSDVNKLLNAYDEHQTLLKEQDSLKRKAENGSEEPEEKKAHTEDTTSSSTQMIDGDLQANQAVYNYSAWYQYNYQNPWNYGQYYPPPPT
UniProt Q99873, whole entry, looked up: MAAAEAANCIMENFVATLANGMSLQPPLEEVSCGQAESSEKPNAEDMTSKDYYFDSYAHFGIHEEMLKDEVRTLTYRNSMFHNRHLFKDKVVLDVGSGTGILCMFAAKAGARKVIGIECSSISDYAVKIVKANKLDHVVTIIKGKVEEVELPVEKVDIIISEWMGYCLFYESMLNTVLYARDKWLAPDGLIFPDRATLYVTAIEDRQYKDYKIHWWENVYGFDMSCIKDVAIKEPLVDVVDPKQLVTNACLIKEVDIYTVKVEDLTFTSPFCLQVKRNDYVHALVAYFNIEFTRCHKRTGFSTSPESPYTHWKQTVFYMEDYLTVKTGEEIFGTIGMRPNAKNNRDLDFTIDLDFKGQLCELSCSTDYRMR

Compound: CC1Cc2ccccc2N1C(=O)C1CCCN(C1)C(=O)CCl (mixture of isomers) [TRIM25 ligand 11 (diastereomer mixture)]
Assay: probe-labelled cysteine peptide fold change vs DMSO (competition) (log2 fold change); higher = less target engagement (more negative = stronger competition)
Details: THP-1, incubation time: 4 h
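Also: competitive chemoproteomic profiling in live THP-1 cells with an iodoacetamide desthiobiotin (IA-DTB) probe, comparing probe-labelled peptide intensities in compound-treated cells against DMSO-treated controls.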

Target	probe-labelled cysteine peptide fold change (10 µM)	probe-labelled cysteine peptide fold change (50 µM)
PREX1_Q8TCU6_1612_CIMQATDIMR (UniProt Q8TCU6)	0.0248	-0.186
PRIM2_P49643_449_YFEMIHNVDDCGFSLNHPNQFFCESQR (UniProt P49643)	-0.206	-0.135
PRKDC_P78527_1135_SLGTIQQCCDAIDHLCR (UniProt P78527)	0.101	0.0684
PRKDC_P78527_1335_CTVVVR (UniProt P78527)	0.148	0.208
PRPS2_P11908_226_VAILVDDMADTCGTICHAADK (UniProt P11908)	-0.0518	0.0205
PRKAA1_Q13131_238_ICDGIFYTPQYLNPSVISLLK (UniProt Q13131)	0.147	-0.173
PRPF31_Q8WWY3_247_MPACNIMLLGAQR (UniProt Q8WWY3)	-0.19	-0.0614
PRPF39_Q86UA1_450_TFEECVLGLAMVR (UniProt Q86UA1)	-0.0525	-0.0403
PRKDC_P78527_3014_SLEYCSTASIDSENPPDLNK (UniProt P78527)	-0.0983	-0.0689
PREX1_Q8TCU6_972_QAPLEPHPLCGLDFCPTNCHINLMEVSYPK (UniProt Q8TCU6)	-0.0924	-0.159
PRMT1_Q99873_360_GQLCELSCSTDYR (UniProt Q99873)	0.0677	0.0837
PREX2_Q70Z35_341_WFVCMAK (UniProt Q70Z35)	-0.0181	0.206
PRMT1_Q99873_103_DKVVLDVGSGTGILCMFAAK (UniProt Q99873)	-0.241	0.142
PRKCSH_P14314_471_YEQGTGCWQGPNR (UniProt P14314)	0.137	-0.0823

Whole records, quoted from the list.
PREX1_Q8TCU6_972_QAPLEPHPLCGLDFCPTNCHINLMEVSYPK (UniProt Q8TCU6) is listed with probe-labelled cysteine peptide fold change (10 µM): -0.0924; probe-labelled cysteine peptide fold change (50 µM): -0.159
PRKDC_P78527_3014_SLEYCSTASIDSENPPDLNK (UniProt P78527) is listed with probe-labelled cysteine peptide fold change (10 µM): -0.0983; probe-labelled cysteine peptide fold change (50 µM): -0.0689
